Changes are numbered by the printed parent chain. These are yes or no findings as the source states them, for the method shown. Some binding calls cover weakened binding; strength is not graded here.

By UniProt entry, the sequences of proteins in these tests, tags left out. Where a name states a change or a piece, a line headed by the entry shows the natural chain unless it says otherwise.
UniProt O75581: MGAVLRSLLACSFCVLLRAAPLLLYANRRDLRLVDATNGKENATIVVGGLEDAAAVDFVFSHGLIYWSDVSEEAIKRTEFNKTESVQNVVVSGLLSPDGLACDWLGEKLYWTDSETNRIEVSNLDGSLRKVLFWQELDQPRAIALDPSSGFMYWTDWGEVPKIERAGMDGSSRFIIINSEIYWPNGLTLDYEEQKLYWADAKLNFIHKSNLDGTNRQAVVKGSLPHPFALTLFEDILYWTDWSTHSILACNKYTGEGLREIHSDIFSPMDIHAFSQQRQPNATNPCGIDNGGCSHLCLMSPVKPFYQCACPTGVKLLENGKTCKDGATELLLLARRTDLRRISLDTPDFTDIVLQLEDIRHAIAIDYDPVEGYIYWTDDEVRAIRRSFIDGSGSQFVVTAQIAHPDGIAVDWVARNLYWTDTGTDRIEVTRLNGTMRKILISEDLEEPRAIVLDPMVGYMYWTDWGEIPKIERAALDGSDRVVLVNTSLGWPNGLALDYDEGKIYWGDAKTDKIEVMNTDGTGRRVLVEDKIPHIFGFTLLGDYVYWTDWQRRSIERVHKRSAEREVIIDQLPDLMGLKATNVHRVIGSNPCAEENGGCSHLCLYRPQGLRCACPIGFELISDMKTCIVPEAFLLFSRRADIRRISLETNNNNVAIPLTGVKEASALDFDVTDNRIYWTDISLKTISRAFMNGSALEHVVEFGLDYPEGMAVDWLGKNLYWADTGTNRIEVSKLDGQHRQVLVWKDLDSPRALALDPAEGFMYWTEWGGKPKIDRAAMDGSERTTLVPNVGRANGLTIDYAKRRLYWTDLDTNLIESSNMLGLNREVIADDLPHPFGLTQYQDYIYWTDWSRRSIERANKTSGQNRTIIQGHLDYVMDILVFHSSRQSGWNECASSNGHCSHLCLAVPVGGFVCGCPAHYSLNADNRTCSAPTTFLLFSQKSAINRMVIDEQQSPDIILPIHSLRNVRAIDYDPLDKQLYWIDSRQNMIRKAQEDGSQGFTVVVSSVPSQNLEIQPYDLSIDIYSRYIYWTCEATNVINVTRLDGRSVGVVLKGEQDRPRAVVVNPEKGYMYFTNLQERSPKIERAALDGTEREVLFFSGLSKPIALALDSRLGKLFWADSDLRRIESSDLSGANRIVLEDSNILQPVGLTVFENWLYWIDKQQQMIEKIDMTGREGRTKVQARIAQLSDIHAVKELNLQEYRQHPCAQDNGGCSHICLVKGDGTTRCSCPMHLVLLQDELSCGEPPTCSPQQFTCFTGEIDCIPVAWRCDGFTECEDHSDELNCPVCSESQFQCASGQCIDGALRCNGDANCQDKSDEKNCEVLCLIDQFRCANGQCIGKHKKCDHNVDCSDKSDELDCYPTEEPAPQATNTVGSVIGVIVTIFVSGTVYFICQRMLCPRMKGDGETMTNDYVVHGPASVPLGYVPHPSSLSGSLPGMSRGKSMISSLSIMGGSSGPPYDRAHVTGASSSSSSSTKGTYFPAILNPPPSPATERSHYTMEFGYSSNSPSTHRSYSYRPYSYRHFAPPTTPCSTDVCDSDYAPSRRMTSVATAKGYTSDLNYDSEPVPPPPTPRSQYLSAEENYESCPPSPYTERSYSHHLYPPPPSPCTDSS

The text below walks through data of patent US20140220040A1.

To fix the notation:
B1: anti-LRP6 monoclonal antibody 1213.2 (antibody, V domains shown)
VH: DVNLVESGGGLVKLGGSLKLSCAASGFTFSSFYMSWVRQTPEKRLDLVATINTNGGSTYYSDTVKGRFTISRDNAKNTLYLQMNSLKSEDTALFYCVRQPYYGGTMDYWGQGTSVTVSS
VL: DIVLTQSPATLSVTPGDRVSLSCRASQSINNNLHWYQQKSHESPRLLIKYASQSISGIPSRFSGSGSGTDFTLSINSVETEDFGMYFCQQTNNWPLTFGAGTKLEL
B2: anti-LRP6 monoclonal antibody 856.6 (antibody, V domains shown)
VH: QVQLQQSGPELVKPGASVRISCKASGYTFTTYYIHWLKQRPGQGLEWIGWIFPGNVNTKYNAKFKGKATLTADKSSSTAYMQLSSLTSEDSAVYFCAREGLQYYFDYWGQGTTLTVSS
VL: QIVLTQSPAIMSASPGEKVTISCSANSSVRFMFWYQQKPGSSPKPLIYRTSNLASGVPARFSGSGSGTSYSLTISSMEAEDAATYYCQQYHSYPWTFGGGTKLEI
B3: anti-LRP6 monoclonal antibody 421.1 (antibody, V domains shown)
VH: B2 VH with G100E, T112S
VL: B2 VL with S64C
B4: anti-LRP6 monoclonal antibody 1293.11 (antibody, V domains shown)
VH: B2 VH with G100E, T112S, T113A
VL: B2 VL
B5: anti-LRP6 monoclonal antibody 413.1 (antibody, V domains shown)
VH: EIQLQQSGPELVKPGASVKVSCKASGYAFTSYNMYWVKQSHGKGLEWIGYIDPYNGGTDSNQNFKGKATLTVDKSSSTAFMHLNSLTSEDSAVYYCARGGMGLRRDHFDYWGQGTSLTVSS
VL: B2 VL with F31Y, S42F, L46W, I47T, A82V

In this assay the target is HA-tagged full-length human LRP6 expressed on 293 / 293 T cells (human) (UniProt O75581). The experiment in a line: FACS on 293 T cells transfected with HA-tagged hLRP6.
As to B1, the binding result is “binds”.
As to B2, the binding result was “binds”.
The same measure for B3: “binds”; for B4: “binds”; for B5: “binds”.
